Results from patent US20110250213A1 (JN BIOSCIENCES, published 2011).

Key:
[1] = molecular target: dog CD122 (dog); test: assay not specified
[2] = molecular target: HuD1/HuD2 (human); test: flow cytometry on HEK293 cells expressing HuD1/HuD2 and its mutants, antibody 100 ng/ml
[3] = molecular target: HuD1 (human); test: flow cytometry on transfected HEK293 cells, antibody 5 µg/ml
[4] = molecular target: HuD2 (human); test: flow cytometry on transfected HEK293 cells
[5] = molecular target: HuD1 (human); test: flow cytometry on transfected HEK293 cells
[6] = molecular target: MoD1/MoD2 (mouse); test: flow cytometry on transfected HEK293 cells
[7] = molecular target: MoD1/HuD2 (mouse; human); test: flow cytometry on transfected HEK293 cells
[8] = molecular target: HuD1/HuD2 (human); test: flow cytometry on transfected HEK293 cells, antibody 5 µg/ml
[9] = molecular target: HuD1/MoD2 (human; mouse); test: as above
[10] = molecular target: HuD1/HuD2 (human); test: FACS on HEK293 cells expressing CD122 constructs, PE-labeled goat anti-human IgG

B1: ABC2 (antibody, mouse IgG1, V domains shown)
VH: EVKLVESGGGLVQPGGSLRLSCATSGFTFSDFYMEWVRQPPGKRLEWIAASRNKANDYTTEYSASVKGRFIVSRDTSQSILYLQMNALRAEDTAIYYCARSYYRYDGMDYWGQGTSVTVSS
VL: QVVLTQSPVIMSASPGEKVTMTCSAISSVSYMYWYQQKPGSSPRLLIYDTSNLVSGVPVRFSGSGSGTSYSLTISRMEAEDAATYYCQQWNTYPYTFGGGTKLEIK
notes: Mouse IgG1/kappa purified from hybridoma; also called mouse anti-human CD122 monoclonal antibody ABC2
For B1, the binding [1] was “no binding”, the binding [2] was “binds” and the binding [3] was “binds”.

B2: ABC101 (antibody, mouse IgG2b, V domains shown)
VH: DVQLQESGPGLVKPSQTVSLTCTVTGYSITNDNHWWNWIRQVSGSKLEWMGYIDSSGSSDNNPSLKSQISITRDTSKNQLFLQLNSVTIEDIGTYYCARGGGRDYYGMDYWGQGTSVTVSS
VL: DIVLTQSPASLAVSLGQRATISCRASQSVSTSSYSYVHWYQQKPGQPPKLLIKYASNLESGVPARFSGSGSGTDFTLNIHPVEEEDTATYYCQHSWDIPFTFGGGTKLEIK
notes: Mouse IgG2b/kappa purified from hybridoma; also called mouse anti-human CD122 monoclonal antibody ABC101
With B2 the binding [1] was “no binding”, the binding [2] was “binds” and the binding [4] was “no binding (tested: 5 µg/ml)”. For the same binder, the binding [5] was “no binding (tested: 5 µg/ml)”, the binding [6] was “no binding (tested: 5 µg/ml)” and the binding [7] was “no binding (tested: 5 µg/ml)”. For the same binder, the binding [8] was “binds” and the binding [9] was “binds”.

B3: HuABC2 (antibody, V domains shown)
VH: EVQLVESGGGLVQPGGSLRLSCAASGFTFSDFYMEWVRQAPGKGLEWIAASRNKANDYTTEYSASVKGRFIVSRDDSKNSLYLQMNSLKTEDTAVYYCARSYYRYDGMDYWGQGTTVTVSS
VL: EIVLTQSPATLSLSPGERATLSCSAISSVSYMYWYQQKPGQAPRLLIYDTSNLVSGVPARFSGSGSGTDYTLTISSLEPEDFAVYYCQQWNTYPYTFGGGTKVEIK
In the case of B3, the binding [10] is reported as “binds”.

B4: HuABC101 (antibody, V domains shown)
VH: QVQLQESGPGLVKPSQTLSLTCTVSGYSITNDNHWWNWIRQHPGKGLEWMGYIDSSGSSDNNPSLKSQITISRDTSKNQLSLKLSSVTAADTAVYYCARGGGRDYYGMDYWGQGTTVTVSS
VL: DIVMTQSPDSLGVSLGERATINCRASQSVSTSSYSYVHWYQQKPGQPPKLLIKYASNLESGVPDRFSGSGSGTDFTLTISSLQAEDVAVYYCQHSWDIPFTFGQGTKLEIK
In the case of B4, the binding [10] is reported as “binds”.

These are yes or no findings as the source states them, for the method shown. For some of these results: Binding calls can cover weak binding; strength is not graded here.
